PubChem BioAssay AID743121, NCATS, 2013

- Screen: 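Knock-downs that sensitise breast cancer cells to camptothecin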 (primary screen)
- System: MDA-MB-231 cells, a human breast cancer line
- Reagents: single siRNA against human genes, 20 nM siRNA (0.8 pmol per well)
- Time to read-out: 120 h (drug added 48 h after transfection, read 72 h later)
- Challenge: camptothecin 20 nM (about EC30) for 72 h; vehicle 0.1% DMSO in parallel plates
- Detection: 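Cell viability by ATP luminescence (CellTiter-Glo) as % of non-targeting siRNA wells, and the log2 ratio of viability without drug over viability with camptothecin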
- Reading the numbers: log2 vehicle/camptothecin viability: higher = stronger sensitisation to camptothecin
- Call rule: 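Active genes have an RSA gene-level p-value below 0.001, computed from the ratios of their separate siRNAs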
The deposit covers about 26,000 reagents; below is a part drawn at random. Over the whole deposit, 167 (0.63%) got an active call. 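Calls are per gene from RSA p-values that are not deposited; an individual active-marked siRNA can sensitise only weakly.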 A number with no mark means an inactive call. Reagents against one gene are numbered here. Further read-outs or replicates are left out here.

target gene	reagent	log2 vehicle/camptothecin viability
INSL3	1	-0.32
INSL3	2	-0.113
INSL3	3	0.34
MPL	1	-0.302
MPL	2	0.161
MPL	3	-0.143
MPL	4	-0.0709
CNTNAP2	1	-0.236
CNTNAP2	2	-0.118
CNTNAP2	3	0.315
CNTNAP2	4	-0.334
VIP	1	-0.112
VIP	2	0.264
VIP	3	-0.00542
VIP	4	0.303
GPR137C	1	0.00372
GPR137C	2	-0.0857
GPR137C	3	-0.108
SLC52A2	1	0.246
SLC52A2	2	0.966
SLC52A2	3	-0.0213
SLC52A2	4	-0.41
MOK	1	-0.676
MOK	2	-0.206
MOK	3	-0.164
MOK	4	-0.111
GYPC	1	-0.316
GYPC	2	-0.253
GYPC	3	-0.0839
FPR3	1	-0.338
FPR3	2	1.41
FPR3	3	-0.416
FPR3	4	-0.343
SIAH2	1	-0.113
SIAH2	2	-0.0922
SIAH2	3	-0.0285
SIAH2	4	-0.0178
MC3R	1	-0.163
MC3R	2	0.429
MC3R	3	-0.614
MC3R	4	-0.433
ETV6	1	0.0893
ETV6	2	-0.125
ETV6	3	0.0304
ETV6	4	0.0231

Sorted by “log2 vehicle/camptothecin viability” (high to low): some entries from above
target gene	reagent	log2 vehicle/camptothecin viability
MC3R	2	0.429
ETV6	1	0.0893
SIAH2	4	-0.0178
SIAH2	3	-0.0285
SIAH2	2	-0.0922
SIAH2	1	-0.113
MC3R	1	-0.163
FPR3	4	-0.343
MC3R	4	-0.433
MC3R	3	-0.614

The listing continues.
target gene	reagent	log2 vehicle/camptothecin viability
CACNA2D3	1	-0.133
CACNA2D3	2	-0.137
CACNA2D3	3	-0.0824
CACNA2D3	4	-0.388
MMP21	1	-0.0087
MMP21	2	-1.19
MMP21	3	0.404
SEL1L	1	0.369 (active)
SEL1L	2	0.127 (active)
SEL1L	3	0.286 (active)
SEL1L	4	1.55 (active)
INHBC	1	-0.338
INHBC	2	-0.385
INHBC	3	-0.538
INHBC	4	0.363
P2RY14	1	-0.153
P2RY14	2	0.384
P2RY14	3	0.596
P2RY14	4	-0.186
USP5	1	1 (active)
USP5	2	1.5 (active)
USP5	3	0.0118 (active)
USP5	4	0.418 (active)
MAPK14	1	-0.182
MAPK14	2	-0.282
MAPK14	3	-0.239
MAPK14	4	-0.221
SNX9	1	-0.218
SNX9	2	-0.133
SNX9	3	-0.164
SNX9	4	-0.0459
KIF15	1	-0.518
KIF15	2	-0.161
KIF15	3	0.0452
LYL1	1	-0.212
LYL1	2	-0.284
LYL1	3	-0.0224
LYL1	4	-0.196
LCAT	1	-0.511
LCAT	2	-0.116
LCAT	3	-0.191
SLC25A29	1	0.387
SLC25A29	2	-0.142
SLC25A29	3	-0.122
